Values from PubChem BioAssay AID504804 (Drosophila RNAi Screening Center, 2011).
In all, the deposit lists about 19,000 reagents; this is a random part of those with a known target gene and a result. Of all reagents, 47 (0.25%) got an active call. 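Signals are raw, not normalised; exact z-scores behind calls not deposited; actives needed confirmation, so some wells reaching 2 SD are inactive.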 Entries without a mark were called inactive.

Assay: 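dsRNAs that improve Kc cell survival under doxorubicin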 (primary screen)
Cell system: Drosophila Kc cells
Knock-down reagent: long dsRNA against Drosophila genes, 0.5 µg dsRNA per well
Timing: 96 h (48 h knock-down, then 48 h drug)
Conditions: doxorubicin 5 µg/ml for 48 h, added 48 h after dsRNA
Read-out: 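Luminescent ATP counts per replicate, not normalised, reflecting viable cells after 48 h dsRNA knock-down followed by 48 h of 5 µg/ml doxorubicin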
Reading the numbers: raw ATP luminescence: higher = more viable cells, protection from doxorubicin
Call rule: 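Active when both duplicate wells lie at least 2 SD above the plate mean and protection is confirmed by rescreening and independent dsRNAs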

After knock-down of CG14564 (GeneID 40425) [DRSC11725] the results were raw ATP luminescence, replicate 1 = 78383; raw ATP luminescence, replicate 2 = 63407. After knock-down of lab (GeneID 40817) [DRSC12627], the screen gave raw ATP luminescence, replicate 1 = 53760; raw ATP luminescence, replicate 2 = 54993. After knock-down of mora (GeneID 42874) [DRSC16594], the screen gave raw ATP luminescence, replicate 1 = 1.12e5; raw ATP luminescence, replicate 2 = 87610. CG9920 (GeneID 41712) [DRSC16578] showed raw ATP luminescence, replicate 1 = 83400; raw ATP luminescence, replicate 2 = 89520. For Esp (GeneID 42962) [DRSC16664], the values are raw ATP luminescence, replicate 1 = 72440; raw ATP luminescence, replicate 2 = 52370. For gek (GeneID 37858) [DRSC04688], the values are raw ATP luminescence, replicate 1 = 66490; raw ATP luminescence, replicate 2 = 70313.

With knock-down of CG15212 (GeneID 50315) [DRSC10212], the screen gave raw ATP luminescence, replicate 1 = 82930; raw ATP luminescence, replicate 2 = 78320. After knock-down of Rtnl1 (GeneID 33721) [DRSC00851], the screen gave raw ATP luminescence, replicate 1 = 2.83e5; raw ATP luminescence, replicate 2 = 2.91e5. Silencing of Rtnl1 (GeneID 33721) [DRSC02684] resulted in: raw ATP luminescence, replicate 1 = 94357; raw ATP luminescence, replicate 2 = 67000. Rtnl1 (GeneID 33721) [DRSC03122] showed raw ATP luminescence, replicate 1 = 1.05e5; raw ATP luminescence, replicate 2 = 69380. CG5768 (GeneID 42915) [DRSC15870] scored raw ATP luminescence, replicate 1 = 46313; raw ATP luminescence, replicate 2 = 56197. With knock-down of CG2861 (GeneID 31414) [DRSC18229], the record shows raw ATP luminescence, replicate 1 = 52310; raw ATP luminescence, replicate 2 = 53780.

Looked up above.
Rtnl1 (GeneID 33721) [DRSC03122], raw ATP luminescence, replicate 2 = 69380
Under “raw ATP luminescence, replicate 1”, mora (GeneID 42874) [DRSC16594] shows 1.12e5
